Results as given in the supplement of paper PMC8104966.
± gives the standard deviation of the averaged measurements. The list shows a part of the results. Repeats in this data set agree poorly, so a single value says little.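 U2OS cells expressing ACE2 were combined with U2OS cells expressing full-length spike, and imaging quantified fusion as the fraction of nuclei displaying both cell types' fluorescent markers. Non-toxic compounds with a fusion z-score under -3, i.e., over three standard deviations below the plate's DMSO wells, are called inhibitory hits.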

system: U2OS ACE2 x SARS-CoV-2 spike co-culture; experiment: cell-cell fusion (fraction fused) z-score vs plate DMSO control; higher = more fusion; settings: 30 µM; 5 h; toxicity class: non-toxic, passed QC

Row | SMILES | cell-cell fusion (z-score)
1 | C[C@@H]1C[C@H]2[C@@H]3CCC4=CC(=O)C=C[C@]4(C)[C@@]3(F)[C@@H](O)C[C@]2(C)[C@H]1C(=O)CO [Desoximetasone] | inactive: 0.899
2 | CC1CCC(NC(=O)N(CCCl)N=O)CC1 (centres undefined) | inactive: 0.0827
3 | O=C([O-])c1cc2cc(Cc3cccnc3)ccc2o1.[Na+] [Furegrelate sodium] | inactive: 5.41
4 | NS(=O)(=O)c1cc2c(cc1Cl)NC(C1CC3C=CC1C3)NS2(=O)=O (centres undefined) [Cyclothiazide] | inactive: 0.302
5 | NS(=O)(=O)c1cc2c(cc1Cl)NC(C1CC3C=CC1C3)NS2(=O)=O (centres undefined) | inactive: 2.04
6 | CC(=O)Oc1ccc2c(c1)CCC1C2CC[C@@]2(C)C1C[C@@H](OC(C)=O)[C@@H]2OC(C)=O (some centres undefined) | inactive: 2.93
7 | CCOC(=O)c1c(C)cc(O)c(C=O)c1O | inactive: 1.95
8 | NCC(O)c1ccc(O)c(O)c1.O=C(O)[C@H](O)[C@@H](O)C(=O)O (racemic) [(±)-Norepinephrine (+)bitartrate] | inactive: -2.48
9 | CN(C(=O)Cc1ccc(Cl)c(Cl)c1)C(CN1CCCC1)c1cccc(OCC(=O)O)c1.Cl (centres undefined) [ICI 204,448 hydrochloride] | inactive: 1.93
10 | COCCOc1cc2ncnc(Cl)c2cc1OCCOC | inactive: 1.44
11 | Fc1cccc(/C=N/N=C/c2cccc(F)c2)c1 | inactive: 3.34
12 | [N-]=[N+]=CC(=O)OCC(N)C(=O)O (centres undefined) | inactive: 2.05
13 | O=c1c2ccccc2nc2n1CCc1c-2[nH]c2ccccc12 [Rutaecarpine] | inactive: -0.516
14 | CCC(=O)O[C@]1(C(=O)CCl)[C@@H](C)C[C@H]2[C@@H]3C[C@H](F)C4=CC(=O)C=C[C@]4(C)[C@@]3(F)[C@@H](O)C[C@@]21C [Halobetasol Propionate] | inactive: 0.397
15 | CC(=O)Oc1cc(OC(C)=O)c2c(c1)O[C@H](c1ccc(OC(C)=O)c(OC(C)=O)c1)[C@@H](OC(C)=O)C2 | inactive: 0.424
16 | CN1CCCC(n2nc(Cc3ccc(Cl)cc3)c3ccccc3c2=O)CC1.Cl (centres undefined) | inactive: 1.17
17 | Cl.NCCc1cc(O)c(O)cc1O | inactive: 0.0614
18 | CC(C)CC(NC(=O)C(C)NC(=O)CNC(=O)C(NC=O)C(C)C)C(=O)NC(C)C(=O)NC(C(=O)NC(C(=O)NC(C(=O)NC(Cc1c[nH]c2ccccc12)C(=O)NC(CC(C)C)C(=O)NC(Cc1c[nH]c2ccccc12)C(=O)NC(CC(C)C)C(=O)NC(Cc1c[nH]c2ccccc12)C(=O)NC(CC(C)C)C(=O)NC(Cc1c[nH]c2ccccc12)C(=O)NCCO)C(C)C)C(C)C)C(C)C (centres undefined) | active: -7.67
19 | CC(=O)[C@H]1CC[C@H]2[C@@H]3CC[C@H]4C[C@](C)(O)CC[C@]4(C)[C@H]3CC[C@]12C [Ganaxolone] | inactive: -0.118
20 | O=C(/C=C/c1ccccc1)c1ccc(O)cc1O | inactive: 1.37
21 | CCOc1cc(/C=C2/C(=O)N(c3ccccc3)N=C2C)cc(Cl)c1OCC(=O)OC | inactive: 1.29
22 | CCC(N)C(O)c1ccc(O)c(O)c1.Cl (centres undefined) | inactive: -1.24
23 | CS(=O)(=O)c1ccc(-n2nc(C(F)(F)F)cc2-c2ccc(F)cc2)cc1 | inactive: 3.22

Three records drawn at random from the list so far, as already listed:
Row | SMILES | cell-cell fusion (z-score)
16 | CN1CCCC(n2nc(Cc3ccc(Cl)cc3)c3ccccc3c2=O)CC1.Cl (centres undefined) | inactive: 1.17
23 | CS(=O)(=O)c1ccc(-n2nc(C(F)(F)F)cc2-c2ccc(F)cc2)cc1 | inactive: 3.22
3 | O=C([O-])c1cc2cc(Cc3cccnc3)ccc2o1.[Na+] [Furegrelate sodium] | inactive: 5.41

Following part

Row | SMILES | cell-cell fusion (z-score)
24 | CNCC[C@H](Oc1cccc2ccccc12)c1cccs1.Cl [Duloxetine hydrochloride] | inactive: 0.758
25 | O=c1cc(-c2ccccc2)oc2ccc(O)cc12 | inactive: 1.44
26 | CC1=NN(c2ccc(C(=O)O)cc2)C(=O)/C1=C\c1ccc(-c2cc(C)c(C)cc2[N+](=O)[O-])o1 | inactive: 0.455
27 | CN[C@@H]1[C@@H](O)C(OC2[C@@H](N)C[C@@H](N)[C@H](O[C@H]3O[C@H](C(C)O)[C@@H](O)[C@H](O)[C@H]3N)[C@H]2O)OC[C@]1(C)O (some centres undefined) | inactive: 1.9
28 | CN(C)C(=O)Oc1cccc([N+](C)(C)C)c1.[Br-] | inactive: -0.111
29 | O=[N+]([O-])c1cccc2cn[nH]c12 [7-Nitroindazole] | inactive: 2.62
30 | CN1CCOC(c2ccccc2)c2ccccc2C1 (centres undefined) | inactive: 1.49
31 | CCN(CC)Cc1cc(Nc2ccnc3cc(Cl)ccc23)ccc1O.Cl.Cl.O.O [Amodiaquine hydrochloride] | inactive: -2.61
32 | CC(=O)OCC(=O)[C@H]1CC[C@H]2[C@@H]3CCC4=CC(=O)CC[C@]4(C)[C@H]3CC[C@]12C [Deoxycorticosterone acetate] | inactive: 3.05
33 | CCOC(=O)C1C(C=C(C)C)C1(C)C (centres undefined) | inactive: 2.4
34 | O=C(CCCCCCC(=O)Nc1cccnc1)NO [Pyroxamide] | inactive: 2.09
35 | CCN(CC)CCOc1ccc(C(=C(Cl)c2ccccc2)c2ccccc2)cc1.O=C(O)CC(O)(CC(=O)O)C(=O)O [Clomifene citrate] | inactive: -2
36 | CNCCc1c[nH]c(CCC(c2ccccc2)c2ccccc2)n1.O=C(O)C(=O)O.O=C(O)C(=O)O [N-Methylhistaprodifen dioxalate salt] | inactive: 4.92
37 | CC[C@@H]([C@H](C)O)n1ncn(-c2ccc(N3CCN(c4ccc(OC[C@@H]5CO[C@@](Cn6cncn6)(c6ccc(F)cc6F)C5)cc4)CC3)cc2)c1=O [Posaconazole] | inactive: 1.41
38 | CN(C)CCCN1c2ccccc2CCc2ccccc21.Cl [Imipramine hydrochloride] | inactive: 2.36
39 | CN(C)CCCN1c2ccccc2CCc2ccccc21.Cl | inactive: 0.749
40 | Cc1cc(C)nc(NS(=O)(=O)c2ccc(N)cc2)n1 [Sulfamethazine] | inactive: 3.12
41 | CC[C@@H]1C(=O)N(C)c2cnc(Nc3ccc(C(=O)NC4CCN(C)CC4)cc3OC)nc2N1C1CCCC1 | inactive: 2.11
42 | CN(C)c1ccc(NCc2ccccn2)cc1 | inactive: 3.85
43 | CCCCCCCCc1ccc(-c2ccc(C(=O)O)cc2)cc1 | inactive: 2.98
44 | COc1ccc(-c2oc3cc(OC)c(OC)c(OC)c3c(=O)c2OC)cc1 | inactive: 1.71
45 | NC(=O)c1ccc([N+](=O)[O-])cc1Cl | inactive: 3.25
46 | Cc1cn[nH]c1 | inactive: -0.506

Row | SMILES | cell-cell fusion (z-score)
47 | CC1(C(=O)O)C2CCC(O2)C1(C)C(=O)O (centres undefined) [Cantharidic Acid] | inactive: 1.39
48 | CC(C(=O)O)[C@H]1CCC2C3CC=C4C[C@@H](O)CC[C@]4(C)C3CC[C@@]21C (stereo partly drawn) [3beta-HYDROXY-23,24-BISNORCHOL-5-ENIC ACID] | inactive: 2.78
49 | CC(=O)O[C@H]1CCC2(C)C3=C(CCC2C1(C)C)[C@@]1(C)CC[C@@H](C(C)CCC=C(C)C)[C@]1(C)CC3 (some centres undefined) | inactive: 1.13
50 | N=C(N)NCC1COC2(CCCCC2)O1.O=S(=O)(O)O (centres undefined) | inactive: 1.15
51 | CO[C@H]1C[C@@H]2CC[C@@H](C)[C@@](O)(O2)C(=O)C(=O)N2CCCC[C@H]2C(=O)O[C@H]([C@H](C)C[C@@H]2CC[C@@H](O)[C@H](OC)C2)CC(=O)[C@H](C)/C=C(\C)[C@@H](O)[C@H](OC)C(=O)[C@H](C)C[C@H](C)/C=C/C=C/C=C/1C [Rapamycin (Sirolimus)] | -4.31 ± 5.8
52 | CCN(CC)CCOC(=O)c1ccc(N)cc1.Cl [Procaine hydrochloride] | inactive: 1.76
53 | O=C(c1cc(O)c(O)c([N+](=O)[O-])c1)c1ccccc1F | inactive: 0.476
54 | Nc1nc(OCC2CCCCC2)c2nc[nH]c2n1 | inactive: -0.12
55 | Cc1ccccc1-n1c(Cn2ncc3c(N)ncnc32)nc2cccc(C)c2c1=O | inactive: 0.386
56 | c1cncc(CN2CCC(n3ncc4c(N5CCOCC5)nc(-c5ccc6[nH]ccc6c5)nc43)CC2)c1 | active: -4.81
57 | CC(=O)OCC1=C(C(=O)[O-])N2C(=O)[C@@H](NC(=O)CCCC(N)C(=O)[O-])C2SC1.[Zn+2] (some centres undefined) | inactive: 1.53
58 | CCC[C@H](NC(=O)/C(C#N)=C/c1cccc(Br)n1)c1ccccc1 | inactive: 2.35
59 | Cc1cnc(C(=O)NCCc2ccc(S(=O)(=O)NC(=O)NC3CCCCC3)cc2)cn1 [Glipizide] | inactive: 1.27
60 | COc1ccc2c(c1)OCC(Cc1ccc(OC)c(OC(C)=O)c1)C2=O (centres undefined) | inactive: 2.92
61 | CC(C)NCC(O)c1ccc2ccccc2c1.Cl (centres undefined) | inactive: 0.284
62 | CC(C)(C)NC[C@H](O)c1ccc(O)c(CO)c1.Cl | inactive: 0.361
63 | Nc1ccc([As](=O)(O)O)cc1 | inactive: 3.07
64 | CC(=O)[C@@]12O[C@]1(C)CC1C3CC=C4C[C@@H](O)CC[C@]4(C)C3CC[C@@]12C (stereo partly drawn) [16beta-METHYL-16(17)-EPOXY-5-PREGNENOLONE] | inactive: 3.16
65 | O=c1[nH]c2ccccc2n1C1CCN(CCCC(c2ccc(F)cc2)c2ccc(F)cc2)CC1 [Pimozide] | inactive: 1.9
66 | O=C(NC(NC(=S)Nc1ccc(F)c([N+](=O)[O-])c1)C(Cl)(Cl)Cl)C(c1ccccc1)c1ccccc1 (centres undefined) | active: -4.65
67 | COC1=CC(=O)C(O)=C/C1=C\C=C\c1ccccc1 | inactive: 2.17
68 | CS(=O)(=O)O.CSc1ccc2c(c1)C(N1CCN(C)CC1)Cc1ccccc1S2 (centres undefined) [Methiothepin mesylate] | inactive: -1.61
69 | Cc1cc2cc3c(C)cc(=O)oc3c(C)c2o1 [Trioxsalen] | inactive: 2.87
